PubChem BioAssay AID493246 – Drosophila RNAi Screening Center, 2011
In all, the deposit lists about 21,000 reagents; below is a random part of those that have a named target and a result. In the full data, 429 (2%) are marked active. 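Values are raw and not normalised between plates; calls rest on per-plate z-scores that were not deposited.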 No sequences are given here. Not stated in the record: the amount of reagent, the time to read-out.

Purpose: 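Genes fly cells need to grow and stay alive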 (primary screen)
System: Drosophila Kc and S2R+ cells
Reagent: long dsRNA against Drosophila genes
Detection: 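Raw, unnormalised count of remaining cells in each well; per-plate z-scores of cell number underlie the calls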
Direction: Kc cell number and S2R+ cell number: higher = more cells remaining
Active means: 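Active when the per-plate z-score of cell number is 3 or more in the direction of fewer cells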

| target gene | dsRNA | Kc cell number, rep 1 | Kc cell number, rep 2 | S2R+ cell number, rep 1 | S2R+ cell number, rep 2 | Outcome |
| --- | --- | --- | --- | --- | --- | --- |
| CG14561 | DRSC11722 | 1.51e6 | 1.55e6 | 1.40e6 | 1.49e6 | inactive |
| Agpat2 | DRSC03532 | 1.20e6 | 1.27e6 | 5.56e5 | 6.38e5 | inactive |
| Dh31 | DRSC02196 | 1.70e6 | 1.71e6 | 1.25e6 | 1.46e6 | inactive |
| spartin | DRSC12187 | 1.61e6 | 1.66e6 | 1.48e6 | 1.54e6 | inactive |
| CG8399 | DRSC07163 | 1.34e6 | 1.42e6 | 1.11e6 | 1.12e6 | inactive |
| CG8343 | DRSC04905 | 1.31e6 | 1.37e6 | 1.10e6 | 1.17e6 | inactive |
| PDCD-5 | DRSC09955 | 1.48e6 | 1.67e6 | 1.41e6 | 1.56e6 | inactive |
| fit | DRSC15280 | 1.44e6 | 1.44e6 | 1.23e6 | 1.39e6 | inactive |
| Scgalpha | DRSC03076 | 1.52e6 | 1.62e6 | 1.32e6 | 1.42e6 | inactive |
| Sprn | DRSC10132 | 1.22e6 | 1.34e6 | 1.25e6 | 1.46e6 | inactive |
| CG1275 | DRSC08294 | 1.41e6 | 1.47e6 | 1.14e6 | 1.22e6 | inactive |
| CG10376 | DRSC02049 | 1.27e6 | 1.33e6 | 1.09e6 | 1.09e6 | inactive |
| CG3436 | DRSC00605 | 6.81e5 | 9.68e5 | 2.34e5 | 3.12e5 | inactive |
| Gad1 | DRSC08661 | 9.95e5 | 1.14e6 | 9.13e5 | 8.93e5 | inactive |
| CG34345 | DRSC02126 | 1.51e6 | 1.42e6 | 1.11e6 | 1.30e6 | inactive |

Records listed so far whose gene name begins with S or s (3):
| target gene | dsRNA | Kc cell number, rep 1 | Kc cell number, rep 2 | S2R+ cell number, rep 1 | S2R+ cell number, rep 2 | Outcome |
| --- | --- | --- | --- | --- | --- | --- |
| spartin | DRSC12187 | 1.61e6 | 1.66e6 | 1.48e6 | 1.54e6 | inactive |
| Scgalpha | DRSC03076 | 1.52e6 | 1.62e6 | 1.32e6 | 1.42e6 | inactive |
| Sprn | DRSC10132 | 1.22e6 | 1.34e6 | 1.25e6 | 1.46e6 | inactive |

Further reagents:
| target gene | dsRNA | Kc cell number, rep 1 | Kc cell number, rep 2 | S2R+ cell number, rep 1 | S2R+ cell number, rep 2 | Outcome |
| --- | --- | --- | --- | --- | --- | --- |
| CG34297 | DRSC12410 | 1.42e6 | 1.53e6 | 1.05e6 | 1.19e6 | inactive |
| Tango14 | DRSC00667 | 1.71e6 | 1.71e6 | 1.11e6 | 1.29e6 | inactive |
| robl | DRSC07674 | 1.51e6 | 1.55e6 | 1.09e6 | 1.20e6 | inactive |
| Csp | DRSC11860 | 1.63e6 | 1.64e6 | 1.38e6 | 1.38e6 | inactive |
| CG15743 | DRSC19709 | 1.74e6 | 1.60e6 | 1.09e6 | 1.24e6 | inactive |
| Ctu1 | DRSC07069 | 1.59e6 | 1.57e6 | 1.35e6 | 1.44e6 | inactive |
| CG11400 | DRSC06070 | 1.52e6 | 1.55e6 | 1.18e6 | 1.27e6 | inactive |
| CG10031 | DRSC00286 | 1.61e6 | 1.54e6 | 1.24e6 | 1.31e6 | inactive |
| Ugt37E1 | DRSC02248 | 1.56e6 | 1.66e6 | 1.20e6 | 1.29e6 | inactive |
